These are yes or no findings as the source states them, for the method shown. Binding seen in cells or lysates may run through a third protein. Some binding calls cover weakened binding; strength is not graded here. Tags and fused reporters may be left off the sequences shown.

By UniProt entry, the sequences of proteins in these tests, tags left out. Residues count along the entry.
UniProt Q9UQF0, residues 21-317: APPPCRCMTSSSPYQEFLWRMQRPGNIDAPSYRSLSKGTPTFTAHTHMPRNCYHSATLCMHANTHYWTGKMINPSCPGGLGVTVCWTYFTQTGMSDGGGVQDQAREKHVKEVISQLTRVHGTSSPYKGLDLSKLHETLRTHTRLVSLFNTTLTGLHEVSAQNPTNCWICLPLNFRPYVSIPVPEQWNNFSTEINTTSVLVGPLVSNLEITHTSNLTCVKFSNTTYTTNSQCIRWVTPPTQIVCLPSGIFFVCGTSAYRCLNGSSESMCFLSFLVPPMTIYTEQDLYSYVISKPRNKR

Assay [1] concerns the target GST-SU (human) (UniProt Q9UQF0). The experiment in a line: GST pull-down, immunoblot with FLAG mAb. In general terms: In western blotting, separated proteins are transferred to a membrane and probed.
Assay [2] shares this target. The experiment in a line: GST-SU pull-down, immunoblot with FLAG mAb.

B1: HtrA4mt-FLAG (enzyme, human, UniProt P83105 32-476, looked up, not shown: small tags and cut ends)
chain: EKLHTQPSCPAVCQPTRCPALPTCALGTTPVFDLCRCCRVCPAAEREVCGGAQGQPCAPGLQCLQPLRPGFPSTCGCPTLGGAVCGSDRRTYPSMCALRAENRAARRLGKVPAVPVQWGNCGDTGTRSAGPLRRNYNFIAAVVEKVAPSVVHVQLWGRLLHGSRLVPVYSGSGFIVSEDGLIITNAHVVRNQQWIEVVLQNGARYEAVVKDIDLKLDLAVIKIESNAELPVLMLGRSSDLRAGEFVVALGSPFSLQNTATAGIVSTKQRGGKELGMKDSDMDYVQIDATINYGNAGGPLVNLDGDVIGVNSLRVTDGISFAIPSDRVRQFLAEYHEHQMKGKAFSNKKYLGLQMLSLTVPLSEELKMHYPDFPDVSSGVYVCKVVEGTAAQSSGLRDHDVIVNINGKPITTTTDVVKALDSDSLSMAVLRGKDNLLLTVIPETIN
Regarding B1, the binding entry in the assay with GST-SU (human) [1] and in the assay with GST-SU (human) [2] was “binds” in each case.

The record behind these values is US20140113288A1.
